Source: the supplement of paper PMC3334620
Whole data set: some 33,000 sequences, median “E-score (-0.5 to 0.5)” near -0.0014, cut for the highest 2% near 0.25. This is one part of the list.

Molecular target: T1, Cad1 (UniProt P24813)
T1 sequence: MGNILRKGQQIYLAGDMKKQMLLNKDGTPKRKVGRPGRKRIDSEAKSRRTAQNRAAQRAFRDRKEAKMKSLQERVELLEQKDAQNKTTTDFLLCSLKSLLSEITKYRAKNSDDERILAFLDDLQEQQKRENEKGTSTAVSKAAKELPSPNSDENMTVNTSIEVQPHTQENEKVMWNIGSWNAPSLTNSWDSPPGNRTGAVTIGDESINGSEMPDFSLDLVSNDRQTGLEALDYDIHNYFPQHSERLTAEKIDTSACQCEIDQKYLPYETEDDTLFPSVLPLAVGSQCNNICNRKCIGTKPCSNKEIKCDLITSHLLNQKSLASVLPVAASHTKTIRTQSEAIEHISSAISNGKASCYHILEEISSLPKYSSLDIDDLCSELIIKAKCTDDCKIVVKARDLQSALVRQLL
Test: PBM E-score (8-mer binding enrichment) (E-score (-0.5 to 0.5)); higher = stronger / more preferred TF binding
Conditions: protein concentration: 100 nM; construct: GST-full length
Summary of the method: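 Detection of bound protein used fluorescent anti-GST, with scans normalised by masliner. The proteins were GST-tagged yeast transcription factors applied at about 100-200 nM to universal all-10-mer Agilent arrays made double-stranded by primer extension. Each ungapped eight-base word, pooled with its reverse complement, was scored with an E-score from the Universal PBM Analysis Suite.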

Sequence	PBM E-score
ATACAGGC	-0.0561
CCTGCAAC	0.0524
AGGGTAAC	-0.151
CGATGAGA	0.0219
AGCAGGTA	-0.0965
GTATAGAC	-0.0122
CCTATGTA	-0.113
GCAGATGA	0.0232
CAAACCGG	-0.0831
CGCAAACG	0.148
ACCAAGGC	-0.0921
CGGCGCTA	-0.0841
ACCCCCGT	-0.308
CCTTACGC	0.225
AATTGCTA	0.0849
CTCCTCCC	-0.192
AATTACTA	0.32
CATATTAC	0.225
AATGCTGG	0.0356
ACGGGGCA	-0.125
AGACTCGC	-0.107
AGTTGCTG	-0.0722
CATACTCC	-0.0816
AAGATACG	0.0308
CGCATAAG	0.0878

Sequence	PBM E-score
GCTGAAAC	0.0683
ATGAGTCG	0.043
GACAGCTA	-0.0363
CCCGCGGA	0.0649
ATTCTGGG	0.0931
AAACCAAG	0.142
GGTCGGAA	-0.0198
AGGACGTA	-0.129
CAGTTTTC	0.142
AGCCTGAG	-0.0629
AATGTCAA	0.133
AGACAACC	0.134
ATGCACAG	-0.00271
AAAACAGG	-0.0537
CAGTCAAC	-0.175
ACATAAAG	0.0348
AGCAGCCC	-0.243
GGGCTCTA	-0.0847
TATGCAGA	0.0639
CATTAAGA	-0.0602
GTAAGTGA	0.131
CGATATGA	-0.0023
ACTTGCTA	-0.0478
ACAGGTTC	-0.189
CGATACCG	0.07

Sequence	PBM E-score
AAGTAGGA	-0.0664
CCCATCGA	0.00956
TTAGGAAA	0.0632
CTAGAAGA	-0.16
ACCGGCCC	-0.27
AAGCTCCA	-0.0892
CGCCAGAA	0.0344
CATTCCAA	0.0895
ATACACAG	0.0693
GGGTTATA	-0.0871
CATAAAGC	-0.0155
AGGAATAC	-0.0525
TGGGGCAA	-0.152
CGGGTATC	-0.131
GCGGTCGA	0.012
ATATTTAG	0.255
ATAGCATC	0.0877
AATTTCGC	0.166
ATACGGCG	0.155
GATCCGGA	0.058
AATTGCTG	0.193
ATACCAAC	0.242
ACACGGCT	0.0272
ATGCGGCC	0.0419
GTCAGACA	0.116

Sequence	PBM E-score
CCCTTGCA	-0.155
GGAGACGA	0.0399
GCCATGAA	0.0405
CATACGCG	0.208
CCAATGAC	-0.0858
CGGCCACC	-0.124
TAACCCCA	-0.262
GCATCGAC	-0.0789
CTTCCGAA	0.0246
TCCTAAAA	0.0491
CACCAGAA	-0.215
AGGACACA	0.162
GATGACGA	0.0955
GATCGTTA	-0.0257
ATCAGCTG	0.163
CCAGGCGA	-0.175
AGCCCTGA	-0.113
AGGAATCA	0.112
GTTGTGTA	0.0512
AATTCTAT	0.0576
CCTTTGCG	-0.0321
GAGTCGTA	-0.0818
ACTGAATC	-0.0362
GGCCCGTA	-0.00128
AGGAACCA	0.0785

Sequence	PBM E-score
CCAATCAC	-0.135
TCCCGGCA	-0.0759
TCTAACAA	-0.00499
CCACCCCC	-0.302
CTTGTATA	0.152
CAAGAAAG	-0.0355
ATGTGCTG	0.187
AGTACTGC	-0.0668
GTCTGTGA	0.0752
GAAAATCA	0.133
CAGGACAA	0.235
CCCACGTA	-0.127
AGTCATGC	0.0722
CCGTACGA	0.0393
CCGGCCGC	-0.106
ACACTCAG	0.00205
AGGAAATA	0.246
CTTCACCA	-0.244
AAAAAAGG	0.0457
CTCTAGGA	-0.307
CTGAAATC	0.00588
ACAGTGTC	0.00997
TGTCAAAA	-0.0597
AATTGTAT	0.106
ATTTTGGA	0.144

Sequence	PBM E-score
CACTTCCC	-0.118
CACGCTGG	-0.114
CAAGTACA	-0.0449
GGCCCCAC	-0.262
CTGACTTC	0.084
AAAGTTTC	0.00219
GAGTCGCA	-0.262
GGCAATGA	-0.161
CAGGTGAG	-0.218
AACGGGCT	-0.101
GGTGATTA	0.236
ACCCTCCA	-0.229
AATCGGCC	-0.00254
CCGATCCA	-0.0429
AGCAACCG	0.0506
CATCAGGG	-0.00636
CTAGTTAC	-0.0303
AACTTGCG	0.0928
ATCAGACA	0.0343
AGGTTGAC	-0.0657
AAGGATTA	-0.0449
GTACATTA	0.0633
ATCCTCAT	-0.191
GGTCCGCA	0.0635
AGGCAGTC	-0.113

Rewritten bar-delimited: entries from further up.
Sequence | PBM E-score
CAAGAAAG | -0.0355
ATGTGCTG | 0.187
AGTACTGC | -0.0668
GTCTGTGA | 0.0752
GAAAATCA | 0.133
CAGGACAA | 0.235
CCCACGTA | -0.127
AGTCATGC | 0.0722
CCGTACGA | 0.0393
CCGGCCGC | -0.106
ACACTCAG | 0.00205
AGGAAATA | 0.246
CTTCACCA | -0.244
AAAAAAGG | 0.0457
CTCTAGGA | -0.307
CTGAAATC | 0.00588
ACAGTGTC | 0.00997
TGTCAAAA | -0.0597
AATTGTAT | 0.106
ATTTTGGA | 0.144
CACTTCCC | -0.118
CACGCTGG | -0.114
CAAGTACA | -0.0449
GGCCCCAC | -0.262
CTGACTTC | 0.084
AAAGTTTC | 0.00219
GAGTCGCA | -0.262
GGCAATGA | -0.161
CAGGTGAG | -0.218
AACGGGCT | -0.101
GGTGATTA | 0.236
ACCCTCCA | -0.229
AATCGGCC | -0.00254
CCGATCCA | -0.0429
AGCAACCG | 0.0506
CATCAGGG | -0.00636
CTAGTTAC | -0.0303
AACTTGCG | 0.0928
ATCAGACA | 0.0343
AGGTTGAC | -0.0657
AAGGATTA | -0.0449
GTACATTA | 0.0633
ATCCTCAT | -0.191
GGTCCGCA | 0.0635

Next entries.

Sequence	PBM E-score
ACCTGCAT	0.105
CTAATAAG	0.0516
CTCAATTA	0.042
CGACACGA	0.207
AACGAAGC	0.111
CCTTCTCC	-0.203
CCAACGTC	-0.0432
CGCATACC	0.0497
AAGGCATG	-0.2
AGGCGTAA	0.0268
AAACCTGT	-0.0205
ACTAGCAT	-0.0862
CAGACGGA	0.106
ACATATTC	0.153
TTAAAAAA	0.181
GTAGCATA	-0.0152
GTAAGGAA	0.0816
CGAGCGAG	0.258
ATTATTCG	0.195
ACCCCGTG	-0.0981
CGTAATAC	0.186
CCGCTGGA	-0.141
